PubChem BioAssay AID1259308 – NCATS – 2017

Test: 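Genes whose loss raises luciferase production in HEK293 cells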 (primary screen)
Cells: human HEK293 embryonic kidney cells stably expressing firefly luciferase (HEK-CMV-Luc2-Hygro)
Reagents: single siRNA against human genes, 0.8 pmol siRNA per well
Duration: 72 h
Measured: 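Luciferase light (ONE-Glo) measured on one replicate plate set and viability (CellTiter-Glo) on the other, scaled to a negative control siRNA, with robust z-scores and luciferase per cell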
Reading the numbers: total luciferase, z-score and total luciferase, % of control: higher = more reporter protein produced; luciferase per cell, z-score: higher = more reporter output per viable cell; viable cells, % of control: higher = more viable cells
Call rule: 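An siRNA counts as active if its total luciferase robust z-score exceeds 3; genes with two or more such siRNAs out of three were retested with fresh siRNAs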
Calls: active = raised luciferase; inactive = no rise
Here is an unselected part of about 59,000 reagents tested. About 1,510 of them (2.6%) count as active. 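Calls use total luciferase alone and ignore viability, so some active siRNAs may act by altering cell number.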 Unmarked entries are inactive. The numbers tell different reagents against one gene apart. No sequences are given here.

| gene knocked down | siRNA no. | total luciferase, z-score | total luciferase, % of control | luciferase per cell, z-score | viable cells, % of control |
| --- | --- | --- | --- | --- | --- |
| PRAME-AS | 1 | -1.95 | 43.2 | -1.63 | 74.2 |
| PRAME-AS | 2 | 0.109 | 84.1 | 0.0349 | 93.1 |
| PRAME-AS | 3 | 2.66 | 135 | 1.33 | 106 |
| CRYBB2 | 1 | -0.796 | 66.1 | -0.805 | 91.3 |
| CRYBB2 | 2 | 3.17 (active) | 145 | 2.17 | 91.4 |
| CRYBB2 | 3 | -0.575 | 70.5 | -0.431 | 88.2 |
| MYO9A | 1 | -1.11 | 59.7 | -0.881 | 84.1 |
| MYO9A | 2 | -1.62 | 49.7 | -0.103 | 57.1 |
| MYO9A | 3 | -0.98 | 62.4 | -0.522 | 80 |
| ACAN | 1 | 0.795 | 97.7 | 0.0249 | 108 |
| ACAN | 2 | -0.205 | 77.8 | -0.126 | 89.9 |
| ACAN | 3 | 1.8 | 118 | 0.542 | 114 |
| MORF4L2 | 1 | -0.68 | 68.4 | -0.395 | 84.8 |
| MORF4L2 | 2 | -0.463 | 72.7 | -0.164 | 84.8 |
| MORF4L2 | 3 | 1.81 | 118 | 2.02 | 77.3 |
| ITPRIP | 1 | 0.392 | 89.7 | 0.343 | 91.6 |
| ITPRIP | 2 | 1.38 | 109 | 0.491 | 107 |
| ITPRIP | 3 | 0.137 | 84.6 | -0.268 | 101 |
| ADAT1 | 1 | -1.13 | 59.4 | 0.477 | 58.6 |
| ADAT1 | 2 | 2.47 | 131 | 1.8 | 91.2 |
| ADAT1 | 3 | -0.547 | 71 | -0.627 | 93.6 |
| KIAA1217 | 1 | -0.575 | 70.4 | -0.684 | 94.3 |
| KIAA1217 | 2 | 1.54 | 113 | 0.823 | 101 |
| KIAA1217 | 3 | -2.13 | 39.5 | -1.85 | 71.7 |
| BST2 | 1 | -2.11 | 40 | -1.46 | 65.7 |
| BST2 | 2 | 0.633 | 94.5 | 0.74 | 86.9 |
| BST2 | 3 | 1.36 | 109 | 1.83 | 75.3 |
| PRAP1 | 1 | 0.24 | 86.7 | -0.297 | 105 |
| PRAP1 | 2 | 0.59 | 93.6 | 0.258 | 97.7 |
| PRAP1 | 3 | 2.43 | 130 | 1.97 | 86.6 |
| ATF6B | 1 | -0.296 | 76 | -0.334 | 92.8 |
| ATF6B | 2 | -2.38 | 34.5 | -3.25 | 90.8 |
| ATF6B | 3 | -0.166 | 78.6 | 0.261 | 82 |
| ASB1 | 1 | -0.925 | 63.5 | 0.023 | 70.5 |
| ASB1 | 2 | -0.562 | 70.7 | -0.668 | 94.2 |
| ASB1 | 3 | -0.021 | 81.5 | -0.0251 | 91.6 |
| ABCD1 | 1 | 0.387 | 89.6 | 0.0273 | 99.4 |
| ABCD1 | 2 | 1.15 | 105 | 2.29 | 64.1 |
| ABCD1 | 3 | 0.00472 | 82 | -0.977 | 118 |
| TET2 | 1 | -0.554 | 70.9 | -0.332 | 86.4 |
| TET2 | 2 | -2.72 | 27.7 | -3.38 | 75.3 |
| TET2 | 3 | 0.0725 | 83.3 | 0.461 | 82.5 |
| C20orf96 | 1 | 0.738 | 96.6 | 0.671 | 90.4 |
| C20orf96 | 2 | -0.472 | 72.5 | 0.0198 | 80.6 |
| C20orf96 | 3 | -0.319 | 75.5 | 0.0287 | 83.8 |
| KLHL18 | 1 | -0.615 | 69.7 | -0.299 | 84.2 |
| KLHL18 | 2 | -1.87 | 44.8 | -1.77 | 79.6 |
| KLHL18 | 3 | 0.684 | 95.5 | 0.833 | 85.7 |
| LYZ | 1 | -2.12 | 39.7 | -1.7 | 69.3 |
| LYZ | 2 | -0.229 | 77.3 | 0.0435 | 85.4 |
| LYZ | 3 | -0.295 | 76 | 0.114 | 82.4 |
| SULT1E1 | 1 | -1.19 | 58.3 | -1.53 | 97.4 |
| SULT1E1 | 2 | -1.19 | 58.3 | -0.783 | 80 |
| SULT1E1 | 3 | 1.01 | 102 | 0.496 | 100 |
| TMEM209 | 1 | -0.625 | 69.5 | -0.432 | 87 |
| TMEM209 | 2 | -0.0325 | 81.2 | -0.11 | 93.4 |
| TMEM209 | 3 | -0.214 | 77.6 | -0.549 | 100 |

An excerpt from above, reduced to “viable cells, % of control”.
PRAME-AS #2 = 93.1
PRAME-AS #3 = 106
CRYBB2 #1 = 91.3
CRYBB2 #2 = 91.4 (active)
CRYBB2 #3 = 88.2
MYO9A #1 = 84.1
MYO9A #2 = 57.1
MYO9A #3 = 80
